Assay results as given in PMC10304383.
These are yes or no findings as the source states them, for the method shown. In cells and extracts the contact can be indirect. Some results given as binding are weak or reduced against the parent protein; the word gives no strength. Each block holds one molecule with its values, some of them ahead of it.

The chains behind the UniProt entries cited, without tags or fusion partners.
UniProt P35221: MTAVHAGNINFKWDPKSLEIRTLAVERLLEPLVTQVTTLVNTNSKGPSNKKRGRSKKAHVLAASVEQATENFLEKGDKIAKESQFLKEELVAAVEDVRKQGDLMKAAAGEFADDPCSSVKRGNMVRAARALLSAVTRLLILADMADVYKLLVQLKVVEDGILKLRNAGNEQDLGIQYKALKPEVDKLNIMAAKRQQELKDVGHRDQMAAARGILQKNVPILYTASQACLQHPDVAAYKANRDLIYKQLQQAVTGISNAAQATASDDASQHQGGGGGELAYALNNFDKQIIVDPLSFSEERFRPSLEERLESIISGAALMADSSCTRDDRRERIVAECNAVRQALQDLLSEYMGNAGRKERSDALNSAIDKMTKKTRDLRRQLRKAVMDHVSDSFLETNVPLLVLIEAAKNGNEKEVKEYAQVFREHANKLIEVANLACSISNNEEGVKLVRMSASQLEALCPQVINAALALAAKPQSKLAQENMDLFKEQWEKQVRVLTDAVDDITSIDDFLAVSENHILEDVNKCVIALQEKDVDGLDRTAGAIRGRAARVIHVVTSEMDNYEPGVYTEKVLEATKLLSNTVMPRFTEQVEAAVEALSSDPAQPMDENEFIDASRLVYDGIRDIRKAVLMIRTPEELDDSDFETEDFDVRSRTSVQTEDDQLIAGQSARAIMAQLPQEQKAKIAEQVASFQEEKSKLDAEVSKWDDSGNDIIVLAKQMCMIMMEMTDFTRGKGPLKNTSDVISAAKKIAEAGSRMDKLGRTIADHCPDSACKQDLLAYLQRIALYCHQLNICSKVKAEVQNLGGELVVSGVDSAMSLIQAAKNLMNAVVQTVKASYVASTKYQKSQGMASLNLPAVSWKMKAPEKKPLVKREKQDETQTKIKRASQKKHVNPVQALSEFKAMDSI
UniProt Q9NR12: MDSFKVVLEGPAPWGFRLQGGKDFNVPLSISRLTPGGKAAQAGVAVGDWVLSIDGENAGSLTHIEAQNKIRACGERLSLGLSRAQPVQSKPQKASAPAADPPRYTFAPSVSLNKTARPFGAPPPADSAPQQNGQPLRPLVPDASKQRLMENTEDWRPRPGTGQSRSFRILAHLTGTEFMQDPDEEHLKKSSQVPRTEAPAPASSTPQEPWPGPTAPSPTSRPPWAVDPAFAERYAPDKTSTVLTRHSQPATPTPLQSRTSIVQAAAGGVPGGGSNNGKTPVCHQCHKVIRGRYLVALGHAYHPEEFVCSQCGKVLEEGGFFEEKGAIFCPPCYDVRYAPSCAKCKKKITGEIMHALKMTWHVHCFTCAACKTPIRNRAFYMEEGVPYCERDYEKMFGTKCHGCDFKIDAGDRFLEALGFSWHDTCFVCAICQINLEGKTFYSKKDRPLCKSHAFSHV

Experiments:
[1] = target: Flag-tagged human α‐catenin (human) (UniProt P35221); assay: co-IP; extracts of HLF cells transfected with Flag-tagged human α-catenin, harvested 48 h after transfection; antibody on Dynabeads Protein G, 4°C overnight; detection by Western immunoblotting
[2] = target: α‐catenin (human (endogenous in HLF and Hep3B)) (UniProt P35221); assay: proximity ligation; DuoLink in situ PLA on fixed, permeabilised HLF and Hep3B cells with α-catenin/CEP55 and α-catenin/PDLIM7 antibody combinations; single antibodies as negative controls

binding [1]: binds
binding [2]: binds
Molecule: PDZ and LIM domain 7 (from UniProt Q9NR12 1-457)

binding [1]: binds
binding [2]: binds
B1: centrosomal protein 55 (protein, UniProt Q53EZ4 1-464)
chain: MSSRSTKDLIKSKWGSKPSNSKSETTLEKLKGEIAHLKTSVDEITSGKGKLTDKERHRLLEKIRVLEAEKEKNAYQLTEKDKEIQRLRDQLKARYSTTTLLEQLEETTREGERREQVLKALSEEKDVLKQQLSAATSRIAELESKTNTLRLSQTVAPNCFNSSINNIHEMEIQLKDALEKNQQWLVYDQQREVYVKGLLAKIFELEKKTETAAHSLPQQTKKPESEGYLQEEKQKCYNDLLASAKKDLEVERQTITQLSFELSEFRRKYEETQKEVHNLNQLLYSQRRADVQHLEDDRHKTEKIQKLREENDIARGKLEEEKKRSEELLSQVQFLYTSLLKQQEEQTRVALLEQQMQACTLDFENEKLDRQHVQHQLHVILKELRKARNQITQLESLKQLHEFAITEPLVTFQGETENREKVAASPKSPTAALNESLVECPKCNIQYPATEHRDLLVHVEYCSK
